Results on 1 substance are retold here after PMC11941830.

Chains of the proteins cited; added tags and fusions are not shown. Residues count along the entry.
UniProt P02787, residues 20-698: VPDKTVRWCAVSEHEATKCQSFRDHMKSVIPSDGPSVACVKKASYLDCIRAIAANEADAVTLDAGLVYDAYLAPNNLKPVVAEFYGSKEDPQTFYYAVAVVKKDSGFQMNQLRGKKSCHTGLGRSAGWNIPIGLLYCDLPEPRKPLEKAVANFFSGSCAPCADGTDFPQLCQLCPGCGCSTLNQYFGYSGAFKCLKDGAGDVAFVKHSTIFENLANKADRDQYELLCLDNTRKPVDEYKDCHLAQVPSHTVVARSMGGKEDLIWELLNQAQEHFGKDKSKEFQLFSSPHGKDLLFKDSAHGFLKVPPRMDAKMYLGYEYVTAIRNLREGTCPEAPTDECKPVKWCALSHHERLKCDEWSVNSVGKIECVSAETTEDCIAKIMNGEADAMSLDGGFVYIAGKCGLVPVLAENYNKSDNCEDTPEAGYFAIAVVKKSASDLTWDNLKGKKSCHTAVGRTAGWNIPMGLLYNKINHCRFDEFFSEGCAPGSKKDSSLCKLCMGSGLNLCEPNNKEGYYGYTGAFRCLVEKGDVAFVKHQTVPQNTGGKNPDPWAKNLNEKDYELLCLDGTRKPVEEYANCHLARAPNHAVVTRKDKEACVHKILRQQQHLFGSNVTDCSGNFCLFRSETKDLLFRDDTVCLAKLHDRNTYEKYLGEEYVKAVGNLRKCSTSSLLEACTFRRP

The target of this test is T1, FLAG-tagged secreted extracellular domain of HephD568H (residues 1-1107) (human) (UniProt Q9BQS7).
T1 sequence: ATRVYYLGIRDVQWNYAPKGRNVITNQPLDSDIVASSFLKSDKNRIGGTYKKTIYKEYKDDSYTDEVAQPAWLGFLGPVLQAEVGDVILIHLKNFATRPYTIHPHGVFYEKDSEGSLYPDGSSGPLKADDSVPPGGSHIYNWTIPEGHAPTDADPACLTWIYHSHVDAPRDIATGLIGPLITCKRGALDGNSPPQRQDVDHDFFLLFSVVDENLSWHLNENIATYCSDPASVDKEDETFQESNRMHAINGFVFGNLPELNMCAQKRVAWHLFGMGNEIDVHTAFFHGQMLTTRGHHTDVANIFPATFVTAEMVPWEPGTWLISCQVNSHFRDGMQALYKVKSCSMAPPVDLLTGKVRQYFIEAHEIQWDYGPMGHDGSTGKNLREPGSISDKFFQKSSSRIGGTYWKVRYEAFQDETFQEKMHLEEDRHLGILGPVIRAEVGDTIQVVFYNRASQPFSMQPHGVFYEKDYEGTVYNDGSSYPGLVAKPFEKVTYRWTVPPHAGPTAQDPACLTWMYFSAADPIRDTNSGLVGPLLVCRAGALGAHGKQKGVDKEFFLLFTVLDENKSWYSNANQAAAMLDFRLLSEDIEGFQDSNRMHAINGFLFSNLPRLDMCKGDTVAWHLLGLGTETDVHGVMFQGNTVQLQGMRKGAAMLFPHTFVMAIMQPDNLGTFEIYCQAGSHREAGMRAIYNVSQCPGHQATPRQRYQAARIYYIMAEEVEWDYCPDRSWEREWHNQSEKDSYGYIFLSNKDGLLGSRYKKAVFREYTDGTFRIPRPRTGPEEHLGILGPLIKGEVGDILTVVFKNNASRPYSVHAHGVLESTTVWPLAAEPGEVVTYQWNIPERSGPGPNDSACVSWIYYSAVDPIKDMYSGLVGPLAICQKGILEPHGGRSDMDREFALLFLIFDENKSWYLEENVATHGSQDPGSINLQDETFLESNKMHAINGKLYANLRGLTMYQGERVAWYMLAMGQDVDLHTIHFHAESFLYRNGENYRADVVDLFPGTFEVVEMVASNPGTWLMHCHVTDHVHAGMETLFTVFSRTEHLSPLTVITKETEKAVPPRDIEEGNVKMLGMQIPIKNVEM
The test is described as follows: pull-down; FLAG-tagged sec-Heph purified from HEK293T culture medium on FLAG-trap resin; equal amounts of each affinity resin incubated with apo-Tfn or holo-Tfn; pulled-down Tfn quantified by Western blot; both purified. For orientation: A western blot detects proteins with antibodies after separation by electrophoresis.

These are yes or no findings as the source states them, for the method shown. Some entries that bind do so weakly or less than the wild type. Tags and fused reporters may be left off the sequences shown.

Take “Apo-transferrin (iron-depleted transferrin) (from UniProt P02787 20-698)”: the binding result was “binds”.
